Assay results from patent publication US20250114335A1, “METHODS AND COMPOSITIONS FOR THE TREATMENT OF EPILEPSY” (ARIZONA BOARD OF REGENTS ON BEHALF OF THE UNIVERSITY OF …, priority 2022, published 2025).
“Also recorded” adds a separate entry of the source. At least one structure is not confirmed: it was looked up by name or label, or the drawing left a doubt.

How the values were obtained:
[1] = system: blood-brain barrier (B6-D/+ mice); experiment: Blood-brain barrier analysis, in situ brain perfusion with 14C-sucrose; format: in vivo, mouse
[2] = system: hippocampal gene expression; experiment: RNAseq and pathway analysis of hippocampal tissue, B6-D/D juveniles; format: in vivo, mouse
Protocol: (§1) Transcriptome studies: B6-D/D and wild-type (+/+) (n=3) were administered CND or VEH by s.c. injection for a period of 5 days starting at P15 and sacrificed for removal of hippocampal tissue (n=12) (FIG. 1B). Adult B6-D/+ male (n=3) mice were administered CND or VEH pellets as described above at the time of seizure onset and monitored for seizures for an extended period before sacrifice and removal of hippocampal tissue (100-160 d) (i.e., to match the age at which a VEH-treated male B6-D/+ experience ˜20 TCs) (FIG. 1B).
(§2) RNA sequencing: Hippocampal tissues from 21 mice were obtained according to a sampling strategy that compared (1) untreated (VEH only) and treated B6-D/D (n=3) with age-matched B6-+/+ controls (n=3 per group), (2) untreated (VEH only) male B6-D/+ mice that had experienced ˜20 TCs (n=3 per group) with age-matched B6-+/+ controls (n=3 per group), and (3) male B6-D/+ mice that were treated with CND for an extended period (n=3 per group). Brains of treated and untreated mice were dissected to yield tissue samples from the hippocampus. Bulk tissue was stored in RNALater (Qiagen, Valencia, CA) at −80 degrees centigrade. The technique for analyzing hippocampal gene expression was performed. Briefly, RNA was isolated from hippocampal tissue, and initial QC was performed. Libraries were constructed using a stranded mRNA-Seq Kit, and average fragment size was assessed. After concentrations were determined with an adaptor-specific qPCR kit, equimolar samples were pooled and clustered for sequencing on a Novaseq instrument (Illumina). Sample data were demultiplexed, trimmed, and quality filtered, and Fastq files were splice-aligned against the […] reference genome using STAR aligner version 2.5.2b. Gene expression counts were obtained using htseq-count version 0.6.1. Both splice alignment and counting were performed with Ensembl Annotation of the NCBI reference genome, and raw counts were analyzed with edgeR version 3.16.5.
(§3) Data and pathway analysis: Results of statistical summaries were generally expressed as mean±SD. Kaplan-Meier survival curves were used to test for differences in survival. […] A ‘perturbation signature’ approach was used to identify genome-wide differences in transcript abundance between transgenic mice (i.e., D/+, D/D, or +/+) that were untreated (VEH) or treated with CND. Differential expression analysis was performed. Briefly, the exactTest function was utilized in edgeR, and gene expression counts were first normalized using the calcNormFactors function. DEG analysis was performed on treatment versus control groups at two different ages using three biological replicates per group, which has been shown in power analyses to be sufficient to yield a true positive rate greater than 80% under the conditions used here. Multidimensional scaling (MDS) plots were constructed using the ‘plotMDS’ function in edgeR, which plots samples on a 2D scatterplot so that distances on the plot approximate the typical log 2 fold changes between samples. […] Rather than focusing on any single gene, bioinformatic analyses of our RNAseq data identified the most statistically significant biological pathways that were enriched given the set of DEGs in each experiment.

[3] = system: hippocampal gene expression; experiment: RNAseq and pathway analysis of hippocampal tissue, B6-D/+ adult males; format: in vivo, mouse
Protocol: as §1, §2, §3

Scn8a-N1768D mouse model = experiment: Example 1: candesartan at different stages of epileptogenesis in Scn8a-N1768D mice; format: in vivo; conditions: statistically significant

With `CCOc1nc2cccc(C(=O)O)c2n1Cc1ccc(-c2ccccc2-c2nnn[nH]2)cc1` [CND, candesartan] the “BBB paracellular permeability (leak) to [14C] sucrose” value ([1]; treatment after seizure onset, s.c. 10 days, B6-D/+ females and males, relative to untreated post-seizure) was “statistically significantly reduced BBB paracellular permeability; also recorded: significantly reduced BBB ‘leak’”, the “BBB paracellular permeability to [14C] sucrose” value ([1]; treatment before seizure onset, B6-D/+ females and males (data not shown)) was “prevents BBB paracellular permeability from increasing above physiological levels” and the “Treated State, upstream regulator ACKR2” value ([2]; B6-D/D Juveniles) was “Deactivated”. For the same molecule, the “Treated State, upstream regulator APOE” value ([2]; B6-D/D Juveniles) was “normalized”, the “Treated State, upstream regulator IL1B” value ([2]; B6-D/D Juveniles) was “normalized” and the “Treated State, upstream regulator PPARGC1A” value ([2]; B6-D/D Juveniles) was “normalized”. For the same molecule, the “Treated State, upstream regulator PTGER4” value ([2]; B6-D/D Juveniles) was “Deactivated”, the “Treated State, upstream regulator SIRT1” value ([2]; B6-D/D Juveniles) was “Deactivated” and the “Treated State, upstream regulator TGFB1” value ([2]; B6-D/D Juveniles) was “normalized”. For the same molecule, the “Treated State, upstream regulator TNF” value ([2]; B6-D/D Juveniles) was “normalized”, the “Treated State, upstream regulator lipopolysaccharide” value ([2]; B6-D/D Juveniles) was “Activated” and the enriched canonical pathways ([2]; CND-treated B6-D/D, strict FDR (0.05)) was “no enriched canonical pathways”. For the same molecule, the “TREATED z-score, upstream regulator APOE” value [3] was “ns”, the “TREATED z-score, upstream regulator IL1B” value [3] was “ns” and the “TREATED z-score, upstream regulator PPARGC1A” value [3] was “ns”. For the same molecule, the “TREATED z-score, upstream regulator TGFB1” value [3] was “ns”, the “TREATED z-score, upstream regulator TNF” value [3] was “ns” and the “TREATED z-score, upstream regulator lipopolysaccharide” value [3] was “ns”. For the same molecule, the “Treated State, upstream regulator APOE” value [3] was “normalized”, the “Treated State, upstream regulator ERBB2” value [3] was “Deactivated” and the “Treated State, upstream regulator IL1B” value [3] was “normalized”. For the same molecule, the “Treated State, upstream regulator NUPR1” value [3] was “Deactivated”, the “Treated State, upstream regulator PPARGC1A” value [3] was “normalized” and the “Treated State, upstream regulator PTGS2” value [3] was “Deactivated”. The “Treated State, upstream regulator TGFB1” value [3] was “normalized”, the “Treated State, upstream regulator TNF” value [3] was “normalized” and the “Treated State, upstream regulator lipopolysaccharide” value [3] was “normalized”. The seizure frequency (Scn8a-N1768D mouse model; adults) was “reduction in seizure frequency” and the “age at seizure onset” value (Scn8a-N1768D mouse model; oral 4 mg/kg/day via peanut butter pellet) was “delay of age at seizure onset”.
